Structures were worked out from names or drawings and are uncertain.
What was measured:
human Nav1.7 = human Nav1.7 (Homo sapiens (Human), UniProt Q15858); experiment: Nav 1.7 in vitro PX assay (PatchXpress whole cell voltage clamp); format: cell-based; conditions: read-out: hNav1.7 PX IC50, HEK 293 cells stably transfected with human Nav1.7, partially inactivated state
hNav1.7 = hNav1.7 (Homo sapiens (Human), UniProt Q15858); experiment: Nav 1.7 IWQ in vitro assay (IonWorks Quattro population patch-clamp); conditions: read-out: hNav1.7 IWQ IC50, HEK 293 cells stably transfected with Nav 1.7

Sequences of proteins named here, by UniProt entry; tags and fusion partners are left off.
UniProt Q15858, whole entry: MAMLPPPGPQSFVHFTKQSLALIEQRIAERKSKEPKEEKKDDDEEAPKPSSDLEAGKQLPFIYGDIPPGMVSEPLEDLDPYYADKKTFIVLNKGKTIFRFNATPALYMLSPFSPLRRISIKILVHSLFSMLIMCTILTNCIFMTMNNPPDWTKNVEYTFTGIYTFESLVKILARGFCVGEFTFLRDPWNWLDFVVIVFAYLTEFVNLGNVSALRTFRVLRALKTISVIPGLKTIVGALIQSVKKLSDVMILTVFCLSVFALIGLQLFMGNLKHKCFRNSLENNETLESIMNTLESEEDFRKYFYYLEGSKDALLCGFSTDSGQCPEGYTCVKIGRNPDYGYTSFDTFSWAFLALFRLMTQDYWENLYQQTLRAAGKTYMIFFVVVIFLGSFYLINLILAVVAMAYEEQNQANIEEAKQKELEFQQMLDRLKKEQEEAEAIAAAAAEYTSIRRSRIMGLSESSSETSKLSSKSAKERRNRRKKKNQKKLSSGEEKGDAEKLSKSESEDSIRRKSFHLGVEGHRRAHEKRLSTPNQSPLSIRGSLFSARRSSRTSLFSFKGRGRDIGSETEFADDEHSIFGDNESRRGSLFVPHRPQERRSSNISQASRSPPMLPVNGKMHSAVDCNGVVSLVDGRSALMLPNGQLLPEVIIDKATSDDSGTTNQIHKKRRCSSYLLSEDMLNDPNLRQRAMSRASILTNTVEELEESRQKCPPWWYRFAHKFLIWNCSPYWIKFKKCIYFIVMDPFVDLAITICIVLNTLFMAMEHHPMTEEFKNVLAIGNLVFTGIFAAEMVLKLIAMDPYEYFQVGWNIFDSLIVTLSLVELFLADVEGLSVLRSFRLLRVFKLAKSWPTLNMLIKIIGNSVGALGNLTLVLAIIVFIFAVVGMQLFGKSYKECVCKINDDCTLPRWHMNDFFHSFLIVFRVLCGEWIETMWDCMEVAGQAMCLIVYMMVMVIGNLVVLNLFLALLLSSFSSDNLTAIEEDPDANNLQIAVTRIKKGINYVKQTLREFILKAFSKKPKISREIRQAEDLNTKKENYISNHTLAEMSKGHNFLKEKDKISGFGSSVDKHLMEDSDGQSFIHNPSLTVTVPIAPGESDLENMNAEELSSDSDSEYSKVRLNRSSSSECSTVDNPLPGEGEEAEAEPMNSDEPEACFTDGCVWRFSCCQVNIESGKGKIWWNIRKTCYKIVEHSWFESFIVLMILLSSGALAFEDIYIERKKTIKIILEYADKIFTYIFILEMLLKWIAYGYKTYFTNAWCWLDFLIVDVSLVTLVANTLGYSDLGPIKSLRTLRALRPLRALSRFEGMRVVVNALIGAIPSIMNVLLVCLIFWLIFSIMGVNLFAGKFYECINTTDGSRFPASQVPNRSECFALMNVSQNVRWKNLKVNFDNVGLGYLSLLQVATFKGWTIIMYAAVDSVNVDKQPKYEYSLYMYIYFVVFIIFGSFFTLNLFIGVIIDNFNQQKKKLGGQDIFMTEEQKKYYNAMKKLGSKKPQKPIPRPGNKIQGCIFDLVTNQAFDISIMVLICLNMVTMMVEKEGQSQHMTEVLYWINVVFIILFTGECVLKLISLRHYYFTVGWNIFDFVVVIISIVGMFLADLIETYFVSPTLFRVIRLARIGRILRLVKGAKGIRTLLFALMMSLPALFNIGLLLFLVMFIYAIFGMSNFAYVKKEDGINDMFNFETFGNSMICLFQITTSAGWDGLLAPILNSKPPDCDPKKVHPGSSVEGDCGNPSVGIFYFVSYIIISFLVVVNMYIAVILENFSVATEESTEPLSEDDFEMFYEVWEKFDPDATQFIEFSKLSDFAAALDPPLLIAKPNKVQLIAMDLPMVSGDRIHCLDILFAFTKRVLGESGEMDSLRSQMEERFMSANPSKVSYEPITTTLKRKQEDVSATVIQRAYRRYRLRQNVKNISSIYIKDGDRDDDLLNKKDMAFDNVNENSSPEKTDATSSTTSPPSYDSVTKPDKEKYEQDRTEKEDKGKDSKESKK

COc1cc(C#CC2CCCC2)c(F)cc1-n1c(=O)ccc2cc(S(=O)(=O)Nc3cccnn3)ccc21 [Example 9]
IC50 (human Nav1.7): 33.8 nM | IC50 (hNav1.7): 9.73 nM

From patent publication US10729684B2, “Alkynyl dihydroquinoline sulfonamide compounds” (AMGEN INC., priority 2015, dated 2020)
